Laboratory results reported in patent US20260232767A1, “INTERLEUKIN-23 RECEPTOR ANTAGONIST PEPTIDES FOR USE IN THE TREATMENT OF PSORIASIS” (Janssen Pharmaceutica NV, priority 2023, published 2026).
The source gives many values for each of these; only a part stands here.

Legend:
[1] = tested on: subjects with moderate-to-severe plaque psoriasis; assay: PASI response, Example 1 16-week dose-ranging study; format: in vivo, human; conditions: Week 16
Procedure: The Psoriasis Area and Severity Index (PASI) is a system used for assessing and grading the severity of psoriatic lesions and their response to therapy. In the PASI system, the body is divided into four regions: the head, trunk, upper extremities, and lower extremities. Each of these areas is assessed and scored separately for erythema, induration, and scaling, which are each rated on a scale of 0 to 4 and extent of involvement on a scale of 0 to 6. The PASI produces a numeric score (a “PASI score”) that can range from 0 to 72. A higher score indicates more severe disease.
This was a randomized, double-blind, placebo-controlled, dose-ranging, parallel group, multicenter, interventional study in subjects with moderate-to-severe plaque psoriasis. A target of 240 subjects were enrolled in this study with 40 subjects planned per intervention group.
Clinician-reported outcomes including Psoriasis Area and Severity Index (PASI), Body Surface Area (BSA), Investigator's Global Assessment (IGA), Nail Psoriasis Area and Severity Index (NAPSI), Fingernail Physician's Global Assessment (f-PGA), Static Physician's Global Assessment of Genitalia (s-PGA-G), Physician's Global Assessment of Hands and/or Feet (hf-PGA), and Scalp Specific Investigator Global Assessment (ss-IGA) were obtained at Week 0, 8, and 16. PASI and IGA were also obtained at Weeks 1, 2, 4, and 12, and at Week 20, four weeks after the administration of the tablets has stopped.
The primary efficacy endpoint was the proportion of participants achieving a PASI 75 response at Week 16, defined as at least a 75% reduction from baseline in PASI total score.
For the primary analysis, composite strategy (non-responder imputation) was applied to address intercurrent event #1 (Discontinuation of study intervention due to lack of efficacy or due to an AE of worsening of psoriasis) and #2 (initiation of a protocol-prohibited medication or therapy that could improve psoriasis); and treatment policy strategy (observed data) was applied to intercurrent event #3 (Discontinuation of study intervention due to other reasons). Participants with missing data after application of ICEs are also considered as non-responders.
In addition to the response analysis, pairwise comparisons of each treatment group versus the placebo group were performed for the primary endpoint of PASI 75 at Week 16. Pairwise comparisons were not adjusted for multiplicity. The Cochran-Mantel-Haenszel chi-square statistic stratified by baseline weight category (≤90 kg, >90 kg) at a 2-sided significance level of 0.05 was used (Table 2).

[2] = tested on: subjects with moderate-to-severe plaque psoriasis; assay: PASI response, Example 2 long-term extension to Week 52; format: in vivo, human; conditions: 100 mg BID, N=42
Excerpt: Described below is a multicenter, long-term extension (LTE), double-blind, dose-ranging, parallel group interventional study in participants from Example 1 to evaluate the long-term efficacy and safety of the hydrochloride salt of the compound of Formula (I) for the treatment of moderate-to-severe plaque psoriasis. Patients from Example 1 continued to receive the same dose of the compound of Formula (I) for an additional 36-week treatment period with a 4-week safety follow up period after the last administration of the compound of Formula (I). Patients randomized to placebo in Example 1 received the compound of Formula (I) at a dose of 100 mg QD starting at Week 16 of Example 1 (FIG. 21).
The primary efficacy endpoint is the proportion of participants achieving a PASI 75 response at Week 52, defined as at least a […] reduction from baseline PASI of Example 1. For primary analysis, composite strategy (non-responder imputation) was applied to address intercurrent event #1 (Discontinuation of study intervention due to lack of efficacy or due to an AE of worsening of psoriasis) and […] (initiation of a protocol-prohibited medication or therapy that could improve psoriasis); treatment policy strategy (observed data) was applied to intercurrent event #3 (Discontinuation of study intervention due to other reasons). […]

For `CC(=O)NCCCC[C@@H]1NC(=O)[C@H](Cc2c[nH]c3c(C)cccc23)NC(=O)[C@H]([C@@H](C)O)NC(=O)[C@H](CC(N)=O)NC(=O)[C@@H](NC(C)=O)C(C)(C)SSC(C)(C)[C@@H](C(=O)N[C@@H](Cc2ccc(OCCN)cc2)C(=O)N[C@@H](Cc2ccc3ccccc3c2)C(=O)NC2(C(=O)N[C@@H](CCC(=O)O)C(=O)N[C@@H](CC(N)=O)C(=O)N[C@@H](Cc3cccnc3)C(=O)N(C)CC(N)=O)CCOCC2)NC1=O` [IL-23 receptor antagonist peptide, Ac-[Pen]*-N-T-[W(7-Me)]-[Lys(Ac)]-[Pen]*-Phe[4-(2-aminoethoxy)]-[2-Nal]-[THP]-E-N-[3-Pal]-Sarc-NH2 (*[Pen]-[Pen]* formdisulfidebond)], which “PASI ≥75% Improvement, % subjects” value ([1]; 100 mg BID, peak plasma conc. <Q1, N=2) is on record?
The value was “(100.0%)”.

What about the “PASI ≥75% Improvement, % subjects” value ([1]; 100 mg BID, peak plasma conc. Q1 to <Q2, N=3) of the same molecule?
The value was “(100.0%)”.

What about the “PASI ≥75% Improvement, % subjects” value ([1]; 100 mg BID, peak plasma conc. Q2 to <Q3, N=2) of the same molecule?
The value was “(50.0%)”.

What about the “PASI ≥75% Improvement, % subjects” value ([1]; 100 mg BID, peak plasma conc. ≥Q3, N=3) of the same molecule?
Its value is “(100.0%)”.

And the “PASI ≥75% Improvement, % subjects” value ([1]; 100 mg QD, peak plasma conc. ≥Q3, N=2)?
The value was “(50.0%)”.

What about the “PASI ≥75% Improvement, % subjects” value ([1]; Combined doses, peak plasma conc. <Q1, N=10) of the same molecule?
Its value is “(40.0%)”.

And the “PASI ≥75% Improvement, % subjects” value ([1]; Combined doses, peak plasma conc. Q1 to <Q2, N=11)?
The value was “(90.9%)”.

What about the “PASI ≥75% Improvement, % subjects” value ([1]; Combined doses, peak plasma conc. Q2 to <Q3, N=10) of the same molecule?
The value was “(70.0%)”.

What about the “PASI ≥75% Improvement, % subjects” value ([1]; Combined doses, peak plasma conc. ≥Q3, N=11) of the same molecule?
Its value is “(72.7%)”.

What about the “PASI ≥90% Improvement, subjects (%)” value [2] of the same molecule?
Its value is “(64.3%)”.
